Primary screen of a compound library

By UniProt entry, the sequences of proteins in these tests, tags left out. Residues count along the entry.
UniProt I6X8D2, whole entry: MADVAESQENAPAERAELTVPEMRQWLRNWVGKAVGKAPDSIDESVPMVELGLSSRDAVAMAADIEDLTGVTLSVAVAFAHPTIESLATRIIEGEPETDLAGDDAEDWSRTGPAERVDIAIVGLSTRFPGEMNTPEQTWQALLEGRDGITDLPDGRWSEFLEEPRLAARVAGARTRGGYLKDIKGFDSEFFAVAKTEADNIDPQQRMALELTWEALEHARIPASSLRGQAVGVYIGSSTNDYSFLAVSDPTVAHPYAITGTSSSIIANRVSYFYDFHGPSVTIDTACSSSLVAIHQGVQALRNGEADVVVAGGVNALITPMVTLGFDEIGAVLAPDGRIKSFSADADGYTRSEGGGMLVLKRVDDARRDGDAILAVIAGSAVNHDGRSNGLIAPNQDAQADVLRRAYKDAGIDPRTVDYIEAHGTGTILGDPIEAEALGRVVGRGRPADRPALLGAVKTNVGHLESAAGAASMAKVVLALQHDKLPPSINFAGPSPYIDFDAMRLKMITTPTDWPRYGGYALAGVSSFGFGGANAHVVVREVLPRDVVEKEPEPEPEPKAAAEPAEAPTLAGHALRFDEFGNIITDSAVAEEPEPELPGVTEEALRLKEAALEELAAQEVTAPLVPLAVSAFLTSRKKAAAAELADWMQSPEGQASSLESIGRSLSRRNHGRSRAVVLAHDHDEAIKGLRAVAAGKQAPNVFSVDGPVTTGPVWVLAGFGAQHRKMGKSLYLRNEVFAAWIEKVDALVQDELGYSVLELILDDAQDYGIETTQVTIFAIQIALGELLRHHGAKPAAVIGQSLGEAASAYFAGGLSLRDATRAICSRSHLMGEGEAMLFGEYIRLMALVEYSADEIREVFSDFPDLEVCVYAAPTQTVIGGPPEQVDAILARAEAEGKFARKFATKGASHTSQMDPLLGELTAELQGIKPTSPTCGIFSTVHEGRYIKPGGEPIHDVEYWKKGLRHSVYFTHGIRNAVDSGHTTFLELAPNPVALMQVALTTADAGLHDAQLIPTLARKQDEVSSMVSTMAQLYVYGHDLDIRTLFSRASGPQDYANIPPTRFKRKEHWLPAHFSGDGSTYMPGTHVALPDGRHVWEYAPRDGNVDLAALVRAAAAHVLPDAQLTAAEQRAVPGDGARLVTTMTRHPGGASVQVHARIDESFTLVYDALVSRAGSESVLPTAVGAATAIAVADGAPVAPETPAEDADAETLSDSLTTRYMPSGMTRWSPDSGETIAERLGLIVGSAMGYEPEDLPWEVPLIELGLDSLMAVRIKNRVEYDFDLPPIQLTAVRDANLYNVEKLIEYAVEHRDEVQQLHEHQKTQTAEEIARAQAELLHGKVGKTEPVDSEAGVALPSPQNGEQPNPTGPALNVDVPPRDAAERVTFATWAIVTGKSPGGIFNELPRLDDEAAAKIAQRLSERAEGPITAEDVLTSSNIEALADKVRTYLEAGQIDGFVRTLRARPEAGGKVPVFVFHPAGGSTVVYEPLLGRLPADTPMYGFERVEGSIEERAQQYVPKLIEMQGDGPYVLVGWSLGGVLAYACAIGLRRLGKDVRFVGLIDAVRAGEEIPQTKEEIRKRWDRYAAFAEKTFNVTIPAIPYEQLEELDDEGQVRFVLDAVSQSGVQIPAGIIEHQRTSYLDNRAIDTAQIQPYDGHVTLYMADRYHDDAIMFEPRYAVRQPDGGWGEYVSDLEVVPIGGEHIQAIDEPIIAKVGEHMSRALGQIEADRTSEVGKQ
UniProt Q8IDJ8, 1-583: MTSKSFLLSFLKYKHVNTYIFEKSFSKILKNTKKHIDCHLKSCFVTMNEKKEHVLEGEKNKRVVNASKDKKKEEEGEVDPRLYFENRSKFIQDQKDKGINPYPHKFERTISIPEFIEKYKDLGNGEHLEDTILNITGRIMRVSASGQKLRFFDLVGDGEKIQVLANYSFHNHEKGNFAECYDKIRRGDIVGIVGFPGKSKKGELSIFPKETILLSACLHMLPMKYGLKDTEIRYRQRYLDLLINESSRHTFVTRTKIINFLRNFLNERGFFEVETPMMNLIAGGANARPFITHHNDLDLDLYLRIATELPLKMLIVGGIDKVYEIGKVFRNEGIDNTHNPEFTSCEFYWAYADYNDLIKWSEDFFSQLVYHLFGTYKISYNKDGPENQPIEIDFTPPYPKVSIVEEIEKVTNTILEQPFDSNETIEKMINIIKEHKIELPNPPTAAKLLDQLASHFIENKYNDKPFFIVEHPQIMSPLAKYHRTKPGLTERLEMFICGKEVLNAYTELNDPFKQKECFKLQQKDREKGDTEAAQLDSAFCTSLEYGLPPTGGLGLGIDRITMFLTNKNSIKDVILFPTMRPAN
UniProt A4I591, 1-473: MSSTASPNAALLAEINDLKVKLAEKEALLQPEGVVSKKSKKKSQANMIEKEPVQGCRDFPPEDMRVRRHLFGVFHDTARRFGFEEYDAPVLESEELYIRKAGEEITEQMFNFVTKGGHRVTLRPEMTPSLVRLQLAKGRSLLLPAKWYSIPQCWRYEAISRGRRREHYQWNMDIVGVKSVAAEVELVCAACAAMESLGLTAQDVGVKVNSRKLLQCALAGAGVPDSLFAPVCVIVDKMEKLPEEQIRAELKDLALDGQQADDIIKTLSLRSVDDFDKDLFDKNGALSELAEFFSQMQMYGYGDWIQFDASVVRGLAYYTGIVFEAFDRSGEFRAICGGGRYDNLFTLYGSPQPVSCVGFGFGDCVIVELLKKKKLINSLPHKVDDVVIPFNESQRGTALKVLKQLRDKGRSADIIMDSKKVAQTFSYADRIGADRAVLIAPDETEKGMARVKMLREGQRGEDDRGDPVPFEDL
UniProt P9WFT3, whole entry: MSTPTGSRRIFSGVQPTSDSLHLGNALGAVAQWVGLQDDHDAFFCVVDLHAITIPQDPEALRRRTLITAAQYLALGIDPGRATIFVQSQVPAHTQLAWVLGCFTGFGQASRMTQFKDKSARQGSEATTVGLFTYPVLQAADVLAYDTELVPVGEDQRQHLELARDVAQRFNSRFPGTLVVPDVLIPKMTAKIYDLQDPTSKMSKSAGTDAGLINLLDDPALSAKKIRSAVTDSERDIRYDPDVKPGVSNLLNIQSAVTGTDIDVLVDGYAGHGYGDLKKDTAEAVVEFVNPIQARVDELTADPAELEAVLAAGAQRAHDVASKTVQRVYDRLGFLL

Source: ChEMBL document CHEMBL3988442, “University of Dundee, Small-Polar-MMV Screening Library” (2021).

Pks13 thioesterase: 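Polyketide synthase Pks13, Mycobacterium tuberculosis (UniProt I6X8D2). Enzyme assay of the thioesterase domain of polyketide synthase 13; the read-out is not stated. Tested at 30 µM. The record gives no direction; the compounds picked for IC50 retests had high values, so higher reads as stronger inhibition. Size under these conditions: about 67,000 compounds, about 300 of them at 50% or above in at least one test.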
PfKRS1: 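Lysine-tRNA ligase, Plasmodium falciparum 3D7 (UniProt Q8IDJ8). Enzyme assay of the cytosolic lysyl-tRNA synthetase in 384-well plates, read by luminescence. Tested at 30 µM. Direction is inferred from only a few compounds that gave an IC50; most scored high, so higher reads as stronger inhibition. About 69,000 compounds were tested under these conditions; 0.071% (about 49) showed 50% or more at least once.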
LiHisRS: 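Histidine-tRNA ligase, Leishmania infantum (UniProt A4I591). Enzyme assay of histidyl-tRNA synthetase; the read-out is not stated. Tested at 30 µM. Higher reads as stronger inhibition (inferred: compounds with an IC50 in retests scored well above the rest). The assay is labelled LdHisRS but filed under L. infantum. Size under these conditions: about 69,000 compounds, about 410 of them at 50% or above in at least one test.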
MtTrpRS: 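Enzyme assay of tryptophanyl-tRNA synthetase; the read-out is not stated. Target: Tryptophan-tRNA ligase, Mycobacterium tuberculosis (UniProt P9WFT3). Tested at 10 µM. Higher most likely means stronger inhibition; the record gives no direction and few retests gave an IC50. Of about 65,000 compounds tested this way, about 64 (0.098%) reached 50% or more in at least one test.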

Results are given as percent effect. How 0% and 100% were set is not recorded. Most values in the screen are low, and negative values occur. This is an unselected part of the compounds tested.

Cc1nn(CCO)cc1CN1CCCN(C2CCCC2)CC1 read Pks13 thioesterase: -6.592%; PfKRS1: 2.233%; LiHisRS: 14.47%; MtTrpRS: 3.748%.
Cn1nccc1CCNC(=O)[C@H]1CNC[C@H](C(=O)N2CCCC2)C1 read Pks13 thioesterase: -9.476%; PfKRS1: 3.775%; LiHisRS: 15.96%; MtTrpRS: 4.299%.
Cc1ccc(C(=O)N2C[C@@H]3COC[C@]3(COCc3cccnc3)C2)cn1 read Pks13 thioesterase: -14.02%; PfKRS1: 3.706%; LiHisRS: 13.27%; MtTrpRS: 0.239%.
COc1cc2[nH]c(=O)c(CN3CCCC3C)cc2c(OC)c1OC (configuration not stated) read Pks13 thioesterase: -1.332%; PfKRS1: 2.975%; LiHisRS: 12.7%; MtTrpRS: 3.799%.
CC(C)(C(=O)NCCCC(N)=O)c1cccc(Br)c1 read Pks13 thioesterase: -32.83%; PfKRS1: 9.25%; LiHisRS: 6.494%; MtTrpRS: -1.48%.
O=C(Nc1cccc(F)c1)NC1CCN(Cc2ccncc2)CC1 read Pks13 thioesterase: 1.226%; PfKRS1: 0.1434%; LiHisRS: 13.95%; MtTrpRS: 0.7389%.
Cc1cccc(N2CCC3(CCCN(C(=O)c4cccnc4)C3)CC2)n1 read Pks13 thioesterase: 10.03%; PfKRS1: 7.736%; LiHisRS: 7.965%; MtTrpRS: -2.596%.
O=C(Cn1cccn1)NCC1CCN(Cc2cc3ccccc3[nH]2)C1 (configuration not stated) read Pks13 thioesterase: -21.2%; PfKRS1: 3%; LiHisRS: 15.38%; MtTrpRS: 2.81%.
CCc1c(C)nc(-n2nc(-c3cccs3)cc2N)[nH]c1=O read Pks13 thioesterase: -21.22%; PfKRS1: 6.401%; LiHisRS: 17.33%; MtTrpRS: -2.234%.
CCCn1ncnc1C(C)NC(=O)CC1CCN(C(C)C)CC1 (configuration not stated) read Pks13 thioesterase: -29.41%; PfKRS1: 7.601%; LiHisRS: 25%; MtTrpRS: -4.333%.
Fc1ccc(CN2CCC3(CC2)CCN(c2ncccn2)CC3)cc1 read Pks13 thioesterase: -22.69%; PfKRS1: 7.095%; LiHisRS: 19.27%; MtTrpRS: 0.5348%.
Cc1nc(CN2CCCC(CCc3ccccc3C(F)(F)F)C2)co1 (configuration not stated) read Pks13 thioesterase: -14.52%; PfKRS1: 23.45%; LiHisRS: 4.959%; MtTrpRS: 0.7323%.
Cc1cccc(NC(=O)C2(n3cnnn3)CCCCC2)n1 read Pks13 thioesterase: -4.525%; PfKRS1: -3.2%; LiHisRS: 2.632%; MtTrpRS: 1.431%.
Cc1ccc(S(=O)(=O)N2CC[C@H]3CO[C@H](CN(C)C)[C@H]3C2)cc1 read Pks13 thioesterase: -8.174%; PfKRS1: 8.197%; LiHisRS: 6.422%; MtTrpRS: 1.91%.
Cc1cc(NC(=O)CN(C)CC2CCCN2c2cccnn2)n(C)n1 (configuration not stated) read Pks13 thioesterase: -9.065%; PfKRS1: 5.525%; LiHisRS: 6.25%; MtTrpRS: -3.685%.
O=C(O)CCc1cc2n(n1)CCN(Cc1ccc3[nH]ccc3c1)C2 read Pks13 thioesterase: 6.32%; PfKRS1: 4.474%; LiHisRS: 23.2%; MtTrpRS: 2.971%.
CN(Cc1nc(-c2cccnc2)no1)C(=O)c1cccn1C read Pks13 thioesterase: -17.84%; PfKRS1: 0.428%; LiHisRS: 13.33%; MtTrpRS: 3.396%.
Cc1ncccc1C(=O)Nc1cccc2c1C(=O)NC2 read Pks13 thioesterase: -18.51%; PfKRS1: 1.065%; LiHisRS: 12.68%; MtTrpRS: -0.3276%.
CSc1cc2c(cc1NC(=O)NCc1ccco1)OCCO2 read Pks13 thioesterase: -13.04%; PfKRS1: 1.237%; LiHisRS: 6.061%; MtTrpRS: 1.413%.
Cc1nc(C2CCCN2Cc2cc(=O)n(C)c(=O)n2C)no1 (configuration not stated) read Pks13 thioesterase: -15.94%; PfKRS1: -0.5835%; LiHisRS: -1.724%; MtTrpRS: -4.112%.

For reference, 2 entries once more:

structure	Pks13 thioesterase	PfKRS1	LiHisRS	MtTrpRS
Cc1cccc(NC(=O)C2(n3cnnn3)CCCCC2)n1	-4.525	-3.2	2.632	1.431
O=C(Nc1cccc(F)c1)NC1CCN(Cc2ccncc2)CC1	1.226	0.1434	13.95	0.7389